Reference: patent US11656221B2, “Methods to identify modulators of actin-binding proteins” (Regents of the University of Minnesota, priority 2019, dated 2023)
“Also recorded” adds a separate entry of the source. For some of these results: At least one structure is not confirmed: it was looked up by name or label, or the drawing left a doubt. Some of these results come from one statement about several compounds together.

Protein sequences, listed by entry. Tags and fused reporters are not part of them. Residues count along the entry.
UniProt O15020, 1-284 L253P: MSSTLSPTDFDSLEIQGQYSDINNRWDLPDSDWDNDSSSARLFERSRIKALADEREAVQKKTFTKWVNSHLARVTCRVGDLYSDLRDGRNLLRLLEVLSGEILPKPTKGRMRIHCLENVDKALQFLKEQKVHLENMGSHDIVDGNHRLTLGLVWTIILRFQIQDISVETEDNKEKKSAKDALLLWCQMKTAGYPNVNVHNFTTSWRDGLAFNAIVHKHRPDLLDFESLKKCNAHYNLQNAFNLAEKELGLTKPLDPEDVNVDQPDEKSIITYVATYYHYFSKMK

What was measured:
[1] = molecular target: T1, ternary complex consisting of GFP-ABD-L253P, Lifeact-mCherry, and actin (Homo sapiens, UniProt O15020, L253P); experiment: Primary live-cell time-resolved FRET assay (GFP-ABD-L253P plus Lifeact-mCherry); format: cell-based
T1 construct: L252P β-III-spectrin (human) ABD residues 1-284; expressed in transfected cells; host or cells: HEK293-6E, pTT5 vector, transient

[2] = molecular target: T2, ABD-L253P (Homo sapiens, UniProt O15020, L253P); experiment: Sedimentation of ABD L253P without actin (aggregation); settings: 10 μM
T2 construct: His-SUMO (cleaved yes); made in house; host or cells: E. coli BL21(DE3), pE-SUMOpro
Method: F-actin and ABD binding assays were performed as previously described. In brief, binding assays used 1 μM ABD protein, 1 μM F-actin and 1-50 μM compound (as indicated) or DMSO control for a total reaction volume of 60 μL in F-buffer containing 10 mM Tris, pH 7.5, 150 mM NaCl, 0.5 mM ATP, 2 mM MgCl2, and 1 mM DTT. Following 30 min incubation at room temperature (21° C.). F-actin was pelleted using centrifugation at 100,000×g at 25° C. for 30 min. Unbound ABD in the supernatant was measured following SDS-PAGE and Coomassie blue staining in accord. In addition, control co-sedimentations assays that lacked actin were performed to test if compounds cause ABD aggregation. […] Amount of mCherry was determined by acquiring fluorescence spectrum peak intensity at ˜600 nm using a spectral unmixing plate reader (Fluorescence Innovations, Inc) equipped with a 532 nm laser (Laserglow Technologies, Ontario, Canada) for excitation, 532 nm longpass filter for emission, and PMT for emission detection. The fraction of Lifeact-mCherry bound to F-actin was determined by subtracting from one the fraction of supernatant fluorescence intensity relative to the no-actin control sample, using the following equation: […]

[3] = tested on: mammalian cells; settings: 10 μM; cited from earlier work

SMILES | effect on FRET in primary screen (Hit, 4SD threshold) ([1]; LOPAC compounds 10 μM, 120 min) | ABD L253P aggregation (pelleting without actin) [2] | previously found reduction of cell viability [3] [%] | reduction of total FRET ([1]; 1 μM swinholide A, HEK293-6E cells, relative to DMSO) [%]
Cc1cc2c(C(C)C)c(O)c(O)c(C=O)c2c(O)c1-c1c(C)cc2c(C(C)C)c(O)c(O)c(C=O)c2c1O [gossypol] | decrease FRET | increases ABD pelleting; also recorded: promote aggregation | < 10 | –
CO[C@H]1C[C@H](CC[C@H](C)[C@H](O)[C@H](C)[C@H]2OC(=O)/C=C/C(C)=C/C[C@H](O)C[C@@H]3C=CC[C@@H](C[C@H](OC)[C@@H](C)[C@@H](O)C[C@@H](O)[C@H](C)[C@@H]([C@@H](C)[C@@H](O)[C@@H](C)CC[C@H]4C[C@H](OC)C[C@H](C)O4)OC(=O)/C=C/C(C)=C/C[C@H](O)C[C@@H]4C=CC[C@@H](C[C@H](OC)[C@@H](C)[C@@H](O)C[C@@H](O)[C@@H]2C)O4)O3)O[C@@H](C)C1 [swinholide A] | – | – | – | > 50
